The record followed here is the supplement of paper PMC4604168 (melanoma cell lines).

Structures are written as SMILES. The list shows a part of the results. Repeats are few or missing, and single values can be far off.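 Imaging used 1,536-well plates; nuclei positive for cleaved PARP by antibody were divided by total DNA-stained nuclei to yield the apoptosis fraction. Doses for screening kept most cells viable, and cell lines differ markedly in resting and induced cleaved-PARP levels.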

The test system of this assay is CBRC017 (line from a melanoma biopsy). The experiment in a line: cleaved PARP positive nuclei fraction relative to DMSO control; melanoma cells; higher = more apoptosis. As to conditions: library dose: low library concentration; 72 h.
With `CN(C)S(=O)(=O)c1ccc2c(c1)/C(=C/c1cc3c([nH]1)CCCC3)C(=O)N2` + COc1cc2ncnc(Nc3ccc(Oc4ccccc4)cc3)c2cc1OC [SrcI1] (first compound 0.4 µM, partner dose 2 µM), the “cleaved PARP positive nuclei fraction” value was found to be 152%.

Regarding `NCC(=O)Nc1ccc(-n2nc(C(F)(F)F)cc2-c2ccc3c(ccc4ccccc43)c2)cc1` + Cn1cc(/C=C2\C(=O)Nc3cccnc32)c2ccccc21 [GW441756] (first compound 1 µM, partner dose 0.4 µM), the “cleaved PARP positive nuclei fraction” value stood at 91.3%.

For `O=C(Nc1ccccc1)c1cc([N+](=O)[O-])ccc1Cl` + Oc1cc(-c2nc(-c3ccccc3)[nH]c2-c2ccncc2)ccc1Cl [L779450] (first compound 2 µM, partner dose 0.2 µM), the “cleaved PARP positive nuclei fraction” value came out at 128%.

On to `O=C1NC(=O)/C(=C/c2ccc(-c3ccc(F)cc3O)o2)S1` + c1cc(-c2cnn3cc(-c4ccc(OCCN5CCCCC5)cc4)cnc23)ccn1 [Dorsomorphin] (first compound 1 µM, partner dose 0.4 µM), for which the “cleaved PARP positive nuclei fraction” value amounted to 78.1%.

With `COC(=O)c1sccc1S(=O)(=O)Nc1ccc(Nc2ccccc2)cc1OC` + COc1ccc(COc2ccc(Cc3cnc(N)nc3N)cc2OC)cc1 [GW2580] (first compound 1 µM, partner dose 1 µM), the “cleaved PARP positive nuclei fraction” value amounted to 80%.

In the case of `COc1cc2c(Oc3ccc4[nH]c(C)cc4c3F)ncnc2cc1OCCCN1CCCC1` [cediranib] + CCN(CC)CCCCNc1ncc2cc(-c3cc(OC)cc(OC)c3)c(NC(=O)NC(C)(C)C)nc2n1 [PD173074] (first compound 0.4 µM, partner dose 0.1 µM), the “cleaved PARP positive nuclei fraction” value turned out to be 72.8%.

On to `O=C1NC(=O)/C(=C/c2ccc(-c3ccc(F)cc3O)o2)S1` + COc1cc(N2CCC(N3CCN(C)CC3)CC2)ccc1Nc1ncc(Cl)c(Nc2ccccc2S(=O)(=O)C(C)C)n1 [NVP-TAE684] (first compound 1 µM, partner dose 0.08 µM), for which the “cleaved PARP positive nuclei fraction” value came out at 73.3%.

For `O=C(O)c1ccc(-c2c[nH]c3ncc(-c4ccccc4)cc23)cc1C1CCCC1` + O=C(O)C(=O)Nc1sc2c(c1C(=O)O)CCNC2 [TCS401] (first compound 0.16 µM, partner dose 1.66667 µM), the “cleaved PARP positive nuclei fraction” value stood at 73.1%.

As to `CN(NC(=O)CC(=O)NN(C)C(=S)c1ccccc1)C(=S)c1ccccc1` + CCN(CC)CCCCNc1ncc2cc(-c3cc(OC)cc(OC)c3)c(NC(=O)NC(C)(C)C)nc2n1 [PD173074] (first compound 0.006 µM, partner dose 0.1 µM), the “cleaved PARP positive nuclei fraction” value was found to be 166%.

Take `NCC(=O)Nc1ccc(-n2nc(C(F)(F)F)cc2-c2ccc3c(ccc4ccccc43)c2)cc1` + Cc1cc([N+](=O)[O-])ccc1NS(=O)(=O)c1cc(Cl)ccc1Cl [FH535] (first compound 1 µM, partner dose 1 µM): the “cleaved PARP positive nuclei fraction” value was determined as 298%.

Regarding `COc1ccc(COc2ccc(Cc3cnc(N)nc3N)cc2OC)cc1` + O=S(=O)(c1ccccc1)N(CC(F)(F)F)c1ccc(C(O)(C(F)(F)F)C(F)(F)F)cc1 [T0901317] (first compound 1 µM, partner dose 1.4 µM), the “cleaved PARP positive nuclei fraction” value was 126%.

With `O=C(Nc1ccccc1)c1cc([N+](=O)[O-])ccc1Cl` + COc1ccc(COc2ccc(Cc3cnc(N)nc3N)cc2OC)cc1 [GW2580] (first compound 2 µM, partner dose 1 µM), the “cleaved PARP positive nuclei fraction” value amounted to 103%.

On to `NCC(=O)Nc1ccc(-n2nc(C(F)(F)F)cc2-c2ccc3c(ccc4ccccc43)c2)cc1` + COc1ccc(-c2ccc3c(N4CCOCC4)nc(N4C[C@@H](C)O[C@@H](C)C4)nc3n2)cc1CO [KU0063794] (first compound 1 µM, partner dose 0.02 µM), for which the “cleaved PARP positive nuclei fraction” value was determined as 81%.

Turning to `COc1cc2c(Oc3ccc4[nH]c(C)cc4c3F)ncnc2cc1OCCCN1CCCC1` [cediranib] + COc1ccc(-c2ccc3c(N4CCOCC4)nc(N4C[C@@H](C)O[C@@H](C)C4)nc3n2)cc1CO [KU0063794] (first compound 0.4 µM, partner dose 0.02 µM), the “cleaved PARP positive nuclei fraction” value is 79.4%.

`O=S(=O)(c1ccccc1)N(CC(F)(F)F)c1ccc(C(O)(C(F)(F)F)C(F)(F)F)cc1` + CC(C)CCN1c2nc(Nc3cc(F)c(O)c(F)c3)ncc2N(C)C(=O)C1C [BID1870] (first compound 1.4 µM, partner dose 0.2 µM): the “cleaved PARP positive nuclei fraction” value was 92.5%.
